According to PubChem BioAssay AID493014 (National Center for Advancing Translational Sciences (NCATS), 2011):
The list shows a part of the results. These are further read-outs of the screen, such as a control signal, another cell line or another target. No call is given for them. The list favours compounds with an active or inconclusive main result. Potencies come from curve fits of mixed quality, noted in brackets.

Experiment: qHTS Assay to Find Inhibitors of Chronic Active B-Cell Receptor Signaling
Conditions: ABC-DLBCL IkBa-CBG/CBR reporter, luminescence ratio (green luciferase fused to IkBa over red control in TMD8 lymphoma cells), 4 h
Procedure, shortened: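 Cell line TMD8 (human ABC DLBCL), stably expressing tet-inducible CBG68-IkBa fusion and CBR; IMDM/0.5% FBS; cpd up to 46 uM; dox induction, 4 h, 37C/5% CO2; dual luminescence; green/red ratio; MG132 control.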

[1] = measured here: CBR red luminescence, cell number
[2] = measured here: IkBa-CBG green luminescence

SMILES	AC50 [1]	AC50 [2]
c1ccc(Oc2ccc(-c3ccn[nH]3)cc2)cc1	0.224 µM [rising, full curve, poor fit]	
Cc1ccc(/C=N/NC(=O)c2n[nH]c3c2CCCC3)cc1	1.41 µM [rising, full curve, poor fit]	1 µM [falling, full curve]
O=C(c1ccccc1)C1CN(Cc2ccccc2)CCC1(O)c1ccccc1 (stereo unspecified)	3.16 µM [rising, single point]	
COc1ccc(-n2nnnc2-c2cccc(OC)c2)cc1		18.4 µM [falling, single point]
CCn1c(SCC(=O)c2ccc3c(c2)Cc2ccccc2-3)nnc1-c1ccc(N)cc1	14.1 µM [rising, single point]	
CCOC(=O)C1(Cc2ccccc2Cl)CCN(C(=O)CN2CCOC2=O)CC1	12.6 µM [rising, partial curve, poor fit]	
CN(Cc1ccccc1)C(=O)c1[nH]cnc1C(=O)N[C@@H](CCCCNC(=O)OC(C)(C)C)C(=O)OC(C)(C)C	6.31 µM [rising, partial curve, poor fit]	
O=C(Nc1ccc2nc(-c3cccs3)[nH]c2c1)c1ccco1		18.4 µM [rising, partial curve, poor fit]
COC(=O)c1c(C(=O)OC)n(CCCN)c2ccc(C)cc12	29.1 µM [falling, single point]	
COc1ccc(CC(=O)NNC(=O)c2ccc(Br)s2)cc1OC	16.4 µM [rising, partial curve]	
O=C(Cc1cccs1)Nc1nc(-c2ccc(F)cc2F)cs1	2.06 µM [falling, partial curve, poor fit]	
C=CCNC(=S)N/N=C/c1ccc(C)s1	1.78 µM [rising, full curve, poor fit]	3.16 µM [falling, partial curve, poor fit]
CC1CCCCC1Nc1ncnc2sccc12 (stereo unspecified)	12.6 µM [falling, partial curve]	
Cc1nnc(NC(=O)CSc2nnc(CC(=O)Nc3ccccc3C)n2C)s1	35.5 µM [rising, partial curve, poor fit]	
CSc1ccc(-c2sc(Nc3ccccc3)n[n+]2-c2ccc(F)cc2)cc1	10 µM [falling, partial curve, poor fit]	
Clc1ccc(C[n+]2cc(-c3ccccc3)n3c2CCCCC3)c(Cl)c1	12.6 µM [falling, single point]	
O=C(COc1ccc(Cl)cc1Br)NC1CC1	5.17 µM [rising, partial curve, poor fit]	
O=C(Nc1ccc(OC(F)(F)C(F)F)c(NC(=O)c2cccc(F)c2)c1)c1cccc(F)c1	2.06 µM [rising, partial curve]	
COc1cccc(NC(=O)c2ccc3c(c2)C(=O)N(CC2CCCO2)C3=O)c1 (stereo unspecified)	17.8 µM [falling, partial curve, poor fit]	
Cc1cccc(C)c1NCc1n[nH]c(=S)n1-c1ccccc1		17.8 µM [falling, single point]

Random excerpt: two compounds from above.
SMILES	AC50 [1]	AC50 [2]
COC(=O)c1c(C(=O)OC)n(CCCN)c2ccc(C)cc12	29.1 µM [falling, single point]	
Cc1nnc(NC(=O)CSc2nnc(CC(=O)Nc3ccccc3C)n2C)s1	35.5 µM [rising, partial curve, poor fit]	

Next part

SMILES	AC50 [1]	AC50 [2]
CCOC(=O)/C(=N\Nc1ncnc2ccccc12)c1ccc(C)cc1	14.1 µM [falling, single point]	
Cc1cc(C)c2oc(=O)cc(CN3CCCCC3)c2c1	11.2 µM [rising, single point]	
CCOC(=O)N1CCN(c2c(NCc3ccccn3)c(=O)c2=O)CC1	3.66 µM [rising, partial curve, poor fit]	
C#CCOCCOCCOCCNc1nc(N2CCN(C(=O)[C@H](CCCN=C(N)N)n3cc(C(N)[C@@H](C)CC)nn3)CC2)nc(N2CCN(C(=O)[C@H](CCCCN)n3cc([C@@H](N)[C@H](C)CC)nn3)CC2)n1 (stereo partly specified)	2.06 µM [rising, full curve]	
COc1cc(/C=C2/C(=O)N=C(N)N2C)cc(OC)c1OC	29.1 µM [rising, single point]	
CCCCc1ccc(NC(=O)COCC)cc1	0.366 µM [rising, full curve, poor fit]	
COc1ccc(NC(=O)Nc2ccc3c(c2)CCC3)cc1	3.16 µM [rising, full curve]	
N#C/C(C(=O)N1CCOCC1)=c1/s/c(=C\c2ccccn2)c(=O)n1-c1ccccc1	10 µM [rising, partial curve, poor fit]	
COc1ccc2[nH]c3c(=O)n(CCCCC(=O)NCCN4CCCC4)c(=S)[nH]c3c2c1	14.6 µM [falling, partial curve]	
O=C(O)c1ccccc1-c1ccccc1C(=O)Nc1ccc(-c2nc3cc(Cl)ccc3o2)cc1	6.31 µM [rising, partial curve, poor fit]	
NC(=O)C1CCN(c2nc(-c3ccc(F)cc3)cs2)CC1	29.1 µM [rising, partial curve, poor fit]	
O=C(NCC1CCCO1)c1ccc(NC(=O)c2cccc([N+](=O)[O-])c2)cc1 (stereo unspecified)	6.31 µM [rising, partial curve, poor fit]	
O=C1NC(=O)C(CC(=O)N(Cc2ccco2)C2(C(=O)NC3CCCCC3)CCCCC2)N1 (stereo unspecified)	18.4 µM [rising, partial curve, poor fit]	
Cc1ccc(C)c(S(=O)(=O)N2CCN(C(=O)c3cccn3C)CC2)c1	3.26 µM [falling, single point]	
CCc1c(C)nc2nc(SCc3ccccc3)[nH]n2c1=O	5.01 µM [falling, full curve, poor fit]	
CC(=O)c1cc(-c2ccccc2)n(CCC(=O)Nc2ccc(C(C)C)cc2)c1C	17.8 µM [falling, single point]	
O=C(Cc1csc(Nc2nc(=S)[nH]c3ccccc23)n1)N1CCN(c2cccc(Cl)c2)CC1	5.01 µM [rising, full curve, poor fit]	
CC1=N/C(=C\c2ccc([N+](=O)[O-])cc2)C(=O)N1c1ccc(Br)c(C)c1	5.01 µM [rising, single point]	
C=CCN1C(=O)S/C(=C\c2ccc(N3CCOCC3)cc2C)C1=O	2.59 µM [rising, full curve]	
